From patent US20260079169A1, “VOLATILE ORGANIC COMPOUNDS AS MARKERS FOR CELLULAR COMMUNICATION” (Technion Research and Development Foundation Limited, priority 2020, published 2026)

Experiments:
[1] = test system: A549, H1299, H1975 human lung cancer lines and BEAS-2B normal cell line, each cultured alone; assay: VOCs headspace analysis (ITEX GC-MS) of mono-culture groups (Format-1), bulk cell samples 1×10^4 cells; format: cell-based; details: bulk 1 × 10^4 cell
[2] = test system: different-cell pairs of BEAS-2B, A549, H1299, H1975 without physical contact under a mutual headspace; assay: VOCs headspace analysis (ITEX GC-MS) of different-cell pair co-culture headspace groups (Format-3), bulk cell samples; format: cell-based, human; details: bulk 1 × 10^4 cell

## CCCCC(C)C(C)CCC (centres unmarked) [VOC12]
[1]; A (BEAS-2B) mono-culture
  VOC level in headspace, area under curve (AUC) normalized by STD AUC: 0
[1]; B (A549) mono-culture
  VOC level in headspace, area under curve (AUC) normalized by STD AUC: 0
[1]; C (H1299) mono-culture
  VOC level in headspace, area under curve (AUC) normalized by STD AUC: 0
[1]; D (H1975) mono-culture
  VOC level in headspace, area under curve (AUC) normalized by STD AUC: 0
[2]; A + B (BEAS-2B + A549)
  VOC level in headspace, area under curve (AUC) normalized by STD AUC: 0
[2]; A + C (BEAS-2B + H1299)
  VOC level in headspace, area under curve (AUC) normalized by STD AUC: 0
[2]; A + D (BEAS-2B + H1975)
  VOC level in headspace, area under curve (AUC) normalized by STD AUC: 0
[2]; B + C (A549 + H1299)
  VOC level in headspace, area under curve (AUC) normalized by STD AUC: 0
[2]; B + D (A549 + H1975)
  VOC level in headspace, area under curve (AUC) normalized by STD AUC: 0
[2]; C + D (H1299 + H1975)
  VOC level in headspace, area under curve (AUC) normalized by STD AUC: 0

## CCCCCCCCCCCCC [VOC13]
[1]; A (BEAS-2B) mono-culture
  VOC level in headspace, area under curve (AUC) normalized by STD AUC: 0
[1]; B (A549) mono-culture
  VOC level in headspace, area under curve (AUC) normalized by STD AUC: 0
[1]; C (H1299) mono-culture
  VOC level in headspace, area under curve (AUC) normalized by STD AUC: 0
[1]; D (H1975) mono-culture
  VOC level in headspace, area under curve (AUC) normalized by STD AUC: 6.487
[2]; A + B (BEAS-2B + A549)
  VOC level in headspace, area under curve (AUC) normalized by STD AUC: 0
[2]; A + C (BEAS-2B + H1299)
  VOC level in headspace, area under curve (AUC) normalized by STD AUC: 0
[2]; A + D (BEAS-2B + H1975)
  VOC level in headspace, area under curve (AUC) normalized by STD AUC: 0
[2]; B + C (A549 + H1299)
  VOC level in headspace, area under curve (AUC) normalized by STD AUC: 0
[2]; B + D (A549 + H1975)
  VOC level in headspace, area under curve (AUC) normalized by STD AUC: 5.063
[2]; C + D (H1299 + H1975)
  VOC level in headspace, area under curve (AUC) normalized by STD AUC: 0

## CCCCCCCCCC [VOC14]
[1]; A (BEAS-2B) mono-culture
  VOC level in headspace, area under curve (AUC) normalized by STD AUC: 0
[1]; B (A549) mono-culture
  VOC level in headspace, area under curve (AUC) normalized by STD AUC: 0
[1]; C (H1299) mono-culture
  VOC level in headspace, area under curve (AUC) normalized by STD AUC: 0
[1]; D (H1975) mono-culture
  VOC level in headspace, area under curve (AUC) normalized by STD AUC: 0
[2]; A + B (BEAS-2B + A549)
  VOC level in headspace, area under curve (AUC) normalized by STD AUC: 7.483
[2]; A + C (BEAS-2B + H1299)
  VOC level in headspace, area under curve (AUC) normalized by STD AUC: 0
[2]; A + D (BEAS-2B + H1975)
  VOC level in headspace, area under curve (AUC) normalized by STD AUC: 0
[2]; B + C (A549 + H1299)
  VOC level in headspace, area under curve (AUC) normalized by STD AUC: 0
[2]; B + D (A549 + H1975)
  VOC level in headspace, area under curve (AUC) normalized by STD AUC: 0
[2]; C + D (H1299 + H1975)
  VOC level in headspace, area under curve (AUC) normalized by STD AUC: 0

## CCCCCCCCCCC [VOC15]
[1]; A (BEAS-2B) mono-culture
  VOC level in headspace, area under curve (AUC) normalized by STD AUC: 0
[1]; B (A549) mono-culture
  VOC level in headspace, area under curve (AUC) normalized by STD AUC: 1.529
[1]; C (H1299) mono-culture
  VOC level in headspace, area under curve (AUC) normalized by STD AUC: 0
[1]; D (H1975) mono-culture
  VOC level in headspace, area under curve (AUC) normalized by STD AUC: 0
[2]; A + B (BEAS-2B + A549)
  VOC level in headspace, area under curve (AUC) normalized by STD AUC: 4.086
[2]; A + C (BEAS-2B + H1299)
  VOC level in headspace, area under curve (AUC) normalized by STD AUC: 0
[2]; A + D (BEAS-2B + H1975)
  VOC level in headspace, area under curve (AUC) normalized by STD AUC: 0
[2]; B + C (A549 + H1299)
  VOC level in headspace, area under curve (AUC) normalized by STD AUC: 0
[2]; B + D (A549 + H1975)
  VOC level in headspace, area under curve (AUC) normalized by STD AUC: 0
[2]; C + D (H1299 + H1975)
  VOC level in headspace, area under curve (AUC) normalized by STD AUC: 0

## CC(=O)c1ccccc1 [VOC16]
[1]; A (BEAS-2B) mono-culture
  VOC level in headspace, area under curve (AUC) normalized by STD AUC: 0
[1]; B (A549) mono-culture
  VOC level in headspace, area under curve (AUC) normalized by STD AUC: 0
[1]; C (H1299) mono-culture
  VOC level in headspace, area under curve (AUC) normalized by STD AUC: 0
[1]; D (H1975) mono-culture
  VOC level in headspace, area under curve (AUC) normalized by STD AUC: 6.624
[2]; A + B (BEAS-2B + A549)
  VOC level in headspace, area under curve (AUC) normalized by STD AUC: 7.573
[2]; A + C (BEAS-2B + H1299)
  VOC level in headspace, area under curve (AUC) normalized by STD AUC: 7.246
[2]; A + D (BEAS-2B + H1975)
  VOC level in headspace, area under curve (AUC) normalized by STD AUC: 8.052
[2]; B + C (A549 + H1299)
  VOC level in headspace, area under curve (AUC) normalized by STD AUC: 5.827
[2]; B + D (A549 + H1975)
  VOC level in headspace, area under curve (AUC) normalized by STD AUC: 0
[2]; C + D (H1299 + H1975)
  VOC level in headspace, area under curve (AUC) normalized by STD AUC: 0

## O=C1CCCCC1 [VOC17]
[1]; A (BEAS-2B) mono-culture
  VOC level in headspace, area under curve (AUC) normalized by STD AUC: 0
[1]; B (A549) mono-culture
  VOC level in headspace, area under curve (AUC) normalized by STD AUC: 0
[1]; C (H1299) mono-culture
  VOC level in headspace, area under curve (AUC) normalized by STD AUC: 0
[1]; D (H1975) mono-culture
  VOC level in headspace, area under curve (AUC) normalized by STD AUC: 8.236
[2]; A + B (BEAS-2B + A549)
  VOC level in headspace, area under curve (AUC) normalized by STD AUC: 7.734
[2]; A + C (BEAS-2B + H1299)
  VOC level in headspace, area under curve (AUC) normalized by STD AUC: 0
[2]; A + D (BEAS-2B + H1975)
  VOC level in headspace, area under curve (AUC) normalized by STD AUC: 0
[2]; B + C (A549 + H1299)
  VOC level in headspace, area under curve (AUC) normalized by STD AUC: 8.975
[2]; B + D (A549 + H1975)
  VOC level in headspace, area under curve (AUC) normalized by STD AUC: 6.287
[2]; C + D (H1299 + H1975)
  VOC level in headspace, area under curve (AUC) normalized by STD AUC: 0

## CCCCCCCCCCCCCCCC(=O)OCCCC [VOC19]
[1]; A (BEAS-2B) mono-culture
  VOC level in headspace, area under curve (AUC) normalized by STD AUC: 0
[1]; B (A549) mono-culture
  VOC level in headspace, area under curve (AUC) normalized by STD AUC: 0
[1]; C (H1299) mono-culture
  VOC level in headspace, area under curve (AUC) normalized by STD AUC: 0
[1]; D (H1975) mono-culture
  VOC level in headspace, area under curve (AUC) normalized by STD AUC: 0
[2]; A + B (BEAS-2B + A549)
  VOC level in headspace, area under curve (AUC) normalized by STD AUC: 0
[2]; A + C (BEAS-2B + H1299)
  VOC level in headspace, area under curve (AUC) normalized by STD AUC: 0
[2]; A + D (BEAS-2B + H1975)
  VOC level in headspace, area under curve (AUC) normalized by STD AUC: 0
[2]; B + C (A549 + H1299)
  VOC level in headspace, area under curve (AUC) normalized by STD AUC: 0
[2]; B + D (A549 + H1975)
  VOC level in headspace, area under curve (AUC) normalized by STD AUC: 0
[2]; C + D (H1299 + H1975)
  VOC level in headspace, area under curve (AUC) normalized by STD AUC: 0

## CCCCC(CC)CO (centres unmarked) [VOC20]
[1]; A (BEAS-2B) mono-culture
  VOC level in headspace, area under curve (AUC) normalized by STD AUC: 1.669
[1]; B (A549) mono-culture
  VOC level in headspace, area under curve (AUC) normalized by STD AUC: 2.134
[1]; C (H1299) mono-culture
  VOC level in headspace, area under curve (AUC) normalized by STD AUC: 0
[1]; D (H1975) mono-culture
  VOC level in headspace, area under curve (AUC) normalized by STD AUC: 7.035
[2]; A + B (BEAS-2B + A549)
  VOC level in headspace, area under curve (AUC) normalized by STD AUC: 3.741
[2]; A + C (BEAS-2B + H1299)
  VOC level in headspace, area under curve (AUC) normalized by STD AUC: 0
[2]; A + D (BEAS-2B + H1975)
  VOC level in headspace, area under curve (AUC) normalized by STD AUC: 0
[2]; B + C (A549 + H1299)
  VOC level in headspace, area under curve (AUC) normalized by STD AUC: 0
[2]; B + D (A549 + H1975)
  VOC level in headspace, area under curve (AUC) normalized by STD AUC: 0
[2]; C + D (H1299 + H1975)
  VOC level in headspace, area under curve (AUC) normalized by STD AUC: 0
